This is one part of the list.
tested on: T1, CTL2-GFP (C. trachomatis L2/434/Bu, GFP-expressing); parameters: species or system HeLa; Intracellular C. trachomatis growth in HeLa cells, bulk GFP fluorescence relative to DMSO; details: bulk GFP, single well; 28.5 h, 10 µM; inhibitor
T1 construct: L2/434/Bu, GFP-expressing

Row | SMILES | % of control remaining [%]
1 | COc1ncc(-c2nccnc2OC2CCCCC2)c(OC)n1 [CBK106745] | 100
2 | O=C(CSc1nnc(CN2CCOCC2)n1-c1ccccc1)N1CCN(c2ccccc2)CC1 [CBK266660] | 155.576
3 | CN(C)CCCN(C(=O)c1ccccc1)c1nc2ccc(F)cc2s1 [CBK287640] | 110.402
4 | CCC(C)c1ccc(NC(=O)CSc2nc3cccnc3[nH]2)cc1 (stereo not shown) [CBK264349] | 100
5 | CCCN(Cc1ccoc1)CC1CC1 [CBK018931] | 128.97
6 | C/C(=N\NC(=O)CC1(C)OCCO1)c1oc(C)cc1C [CBK022234] | 158.413
7 | Cc1cccc(C)c1NC(=S)N1CCC2(CC1)OCCO2 [CBK016408] | 83.7337
8 | O=C(c1ccc(-c2nccnc2NCc2ccco2)cc1)N1CCOCC1 [CBK036920] | 186.298
9 | Cc1nc2ccccc2c(=O)n1CC(=O)NCc1ccccc1 [CBK072830] | 104.375
10 | O=C(CC1Nc2cccc3cccc(c23)NC1=O)Nc1ccccc1 (stereo not shown) [CBK268035] | 117.925
11 | Cc1cnoc1-c1cc(Cl)cc(Cl)c1O [CBK015870] | 114.467
12 | Fc1cc2c3c(c1)c1c(n3CCC2)CCNCC1 [CBK018406C] | 108.269
13 | Cc1noc(C)c1CC(=O)N1[C@H]2CCCCCN(C)[C@@]2(C)C[C@H]1c1ccccc1 [CBK286094] | 111.381
14 | COc1ccc(CN(C)C(=O)CCc2c(C)nc3c(cnn3C(C)C)c2C)cc1 [CBK297087] | 174.591
15 | CC(=O)N[C@H](C)Cn1nnc2ccccc21 [CBK282246] | 112.318
16 | O=C(Cc1cccnc1)N1CCC(c2cccc(Cc3ccc(C(F)(F)F)cc3)n2)CC1 [CBK286223] | 92.8714
17 | O=C(CSCc1c(Cl)cccc1Cl)NN1C(=O)c2ccccc2C1=O [CBK267800] | 105.634
18 | O=c1[nH]c2ccc(NC(=S)NCc3ccccc3)cc2[nH]1 [CBK296099] | 146.66
19 | CC(C)(C)S(=O)(=O)c1ccc(C(=O)O)s1 [CBK260880] | 108.735
20 | O=S(=O)(c1ccc(Cl)c(Cl)c1)N1CCOCC1 [CBK043794] | 112.148
21 | CC(C)(C)C(=O)N1CCC(n2nc(-c3ccco3)ccc2=O)CC1 [CBK282341] | 138.748
22 | CN(C)c1cccc(Nc2ccc(-c3ccco3)cn2)c1 [CBK036885] | 207.429
23 | Cc1cc(C)nc(NC(=N)NCCc2c[nH]c3ccccc23)n1 [CBK266321] | 46.5163
24 | COCc1nc2n(n1)CC(NC1CCc3ccccc3CC1)CC2 (stereo not shown) [CBK304737] | 112.32
25 | CC(Oc1ccc(F)cc1)C(=O)NCCN1CCOCC1 (stereo not shown) [CBK265508] | 130.959
26 | Cc1oc2c(c1C(=O)NC(C)c1ccccn1)CCCC2 (stereo not shown) [CBK281825] | 130.095

Row | SMILES | % of control remaining [%]
27 | COc1ccc(-c2cc(NCc3cc(OC)c(OC)c(OC)c3)ncn2)cc1 [CBK091184] | 136.398
28 | Nc1ncc(-c2ccsc2)nc1-c1ccc(O)cc1 [CBK115631] | 104.693
29 | CSc1nnc(-c2ccccc2O)n1CCc1ccccc1 [CBK076668] | 116.826
30 | COc1ccc(-c2cc3cccnc3n2CC(=O)NC(C)(C)C)cc1 [CBK285381] | 88.873
31 | CC(C)(N)CC(=O)N1CCC(Cn2cncn2)(C2CCCCC2)CC1 [CBK136822] | 77.9162
32 | CC(=O)Nc1cccc(C(=O)NCC(c2cccs2)N(C)C)c1 (stereo not shown) [CBK304583] | 116.461
33 | COc1ccc(/C=N/NC(=O)Cc2cccn2C)cc1[N+](=O)[O-] [CBK262789] | 116.918
34 | Cc1cc(C(=O)N2CCC(N3C(=O)OCC3(C)C)CC2)n(C(C)(C)C)n1 [CBK044233] | 130.513
35 | CN1CCN(Cc2nc3c(c(=O)n(C)c(=O)n3C)n2CCc2ccccc2)CC1 [CBK269507] | 112.309
36 | CC(C)c1cc(C(=O)N2CCCCCC2c2ccn(C)n2)no1 (stereo not shown) [CBK283048] | 123.919
37 | FC(F)(F)c1ccc(CN2CCN(c3nccnc3OCc3cccnc3)CC2)cc1 [CBK083133T] | 83.9503
38 | COc1ccc(-c2ccc3n(c2=O)C[C@H]2C[C@@H]3CN(C(=O)c3ccncc3)C2)cc1 [CBK289178] | 115.895
39 | CC(NC(=O)Cc1cccs1)c1nc2cccnc2n1C(C)C (stereo not shown) [CBK283828] | 142.273
40 | CCOC(=O)c1cn(CC)c2cc(F)c(OCC)cc2c1=O [CBK307139] | 155.603
41 | CCN(CC(=O)N1CCN(C)CC1)S(=O)(=O)c1ccc(OC)cc1 [CBK269374] | 144.737
42 | CN(C)CC(=O)NC(Cc1cccs1)c1nccs1 (stereo not shown) [CBK285061] | 135.237
43 | COc1cc(C)c(Nc2cc(-c3ccc(F)c(F)c3)ncn2)cc1OC [CBK090787] | 112.746
44 | Cc1cc(N2CCCC2)c(F)cc1CN1CCC(CO)C1 (stereo not shown) [CBK282916] | 107.098
45 | O=C(c1ccc([N+](=O)[O-])cc1Cl)N1CCN(Cc2ccccc2)CC1 [CBK261778] | 90.4227
46 | COc1ccc(C(=O)C2=C(O)C(=O)N(CCN(C)C)C2c2cccc([N+](=O)[O-])c2)cc1C (stereo not shown) [CBK264875] | 125.99
47 | COc1c(C)cnc(COC(=O)N2C[C@@H](C)O[C@@H](C)C2)c1C [CBK200143] | 93.1451
48 | COc1ccc(Cl)cc1-n1c(-c2ccc3ccccc3n2)n[nH]c1=S [CBK288382] | 148.737
49 | Fc1ccc(-c2n[nH]c(=S)n2CCCN2CCOCC2)cc1 [CBK267127] | 166.519
50 | CCOc1ccc(-c2ccnc(NCC3CCCOC3)n2)cc1C(=O)O (stereo not shown) [CBK307694] | 135.212
51 | O=C(COc1cccnc1)N1CCCC2(CCN(C(=O)Cc3c[nH]c4ccccc34)C2)C1 (stereo not shown) [CBK131608] | 95.4719
52 | CCN1CCCC1CN(Cc1ccncc1)Cc1ccoc1 (stereo not shown) [CBK283171] | 109.616

Numbers 34–37 of the list above:
Row | SMILES | % of control remaining [%]
34 | Cc1cc(C(=O)N2CCC(N3C(=O)OCC3(C)C)CC2)n(C(C)(C)C)n1 [CBK044233] | 130.513
35 | CN1CCN(Cc2nc3c(c(=O)n(C)c(=O)n3C)n2CCc2ccccc2)CC1 [CBK269507] | 112.309
36 | CC(C)c1cc(C(=O)N2CCCCCC2c2ccn(C)n2)no1 (stereo not shown) [CBK283048] | 123.919
37 | FC(F)(F)c1ccc(CN2CCN(c3nccnc3OCc3cccnc3)CC2)cc1 [CBK083133T] | 83.9503

From article PMC12040169 (PLOS Biology, 2025)
